{
  "source": "PubChem BioAssay AID1347075",
  "about": "(National Center for Advancing Translational Sciences (NCATS), 2019)",
  "note": "“And” between values parts separate entries of the source, which are not always exact repeats. Equal entries are not always repeated. Hit rate of the full screen: of about 400,000 compounds, about 5,500 (1.4%) were called active. Inconclusive means that the source gave no clear call. Such entries were picked first, then a sample of the others. Calls follow the shape of the dose curve; as a rule, active = well fitted cell-killing curve with a large enough effect; inconclusive = small, poorly fitted or top-dose-only effect, or effect the other way; inactive = flat fitted curve, though single readings scatter. Potencies beside an inconclusive call are fits to weak or partial responses and may not hold up. Potency is read from the fitted curve at half-maximal effect.",
  "data": [
    {"test": "qHTS assay for MDR1-selective chemotherapeutics: Primary screen using the parental adenocarcinoma cell KB-3-1; also: nearly all actives have a fitted effect of over 60% in size", "conditions": "KB-3-1 viability, CellTiter-Glo ATP luminescence, 72 h; series mostly up to 46.1 µM", "how_it_was_run": "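Cytotoxicity measured as CellTiter-Glo luminescence after 72 h at 37 C. Compound titrations were pinned onto drug-naive KB-3-1 parental adenocarcinoma cells grown in DMEM with 10% FBS, and normalized data fitted to concentration-response curves.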", "values": [
      {"smiles": "CCCN1CCN(CCCNC(=O)c2ccc3nc(N4CCCCC4)sc3c2)CC1", "Potency": "inconclusive: 10.3 µM [rising, partial curve, poor fit]"},
      {"smiles": "O=C(N/N=C/c1cc([N+](=O)[O-])ccc1Cl)c1cnccn1", "Potency": "active: 2.59 µM"},
      {"smiles": "CCS(=O)(=O)c1ncc(Cl)c(C(=O)Nc2ccccc2)n1", "Potency": "inconclusive: 29.1 µM [cytotoxic, single point]"},
      {"smiles": "Cc1ccc(COC(=O)c2[nH]c3c(c2C)C(=O)CC(c2ccc(N(C)C)cc2)C3)cc1", "note": "(stereo not given)", "Potency": "inactive"},
      {"smiles": "COC(=O)c1sccc1S(=O)(=O)N(CC(=O)Nc1ccccc1F)c1ccccc1", "Potency": "inactive"},
      {"smiles": "Oc1ccc(Br)cc1/C=N/Nc1nc(N2CCCCC2)nc(N2CCOCC2)n1", "Potency": "inconclusive: 29.1 µM [cytotoxic, single point]"},
      {"smiles": "CC(C)CCCN1C(N(C)C)=NC[C@@H]1C", "Potency": "inconclusive: 0.0046 µM [rising, full curve]"},
      {"smiles": "CC(=O)c1cccc(NS(=O)(=O)c2cc(-c3cnc(C4CC4)o3)ccc2C)c1", "Potency": "inconclusive: 23.1 µM [cytotoxic, single point] and inconclusive: 18.4 µM [cytotoxic, single point]"},
      {"smiles": "Cc1cc(/C=C2\\SC(=S)N(C)C2=O)c(C)n1-c1ccc(O)cc1", "Potency": "inconclusive: 18.4 µM [cytotoxic, single point]"},
      {"smiles": "CC1CN(S(=O)(=O)c2cccc(C(=O)NCCc3ccc(S(N)(=O)=O)cc3)c2)CC(C)O1", "note": "(stereo not given)", "Potency": "inactive"},
      {"smiles": "COc1cc2c(cc1NC(=O)c1cc(-c3ccccn3)nc3ccccc13)oc1ccccc12", "Potency": "inactive"},
      {"smiles": "CC(C)Oc1ccc(S(=O)(=O)N2CCOCC2)cc1NC(=O)C(C)Oc1ccc(F)cc1", "note": "(stereo not given)", "Potency": "inconclusive: 29.1 µM [rising, single point]"},
      {"smiles": "Cc1ccc(C(=O)Nc2cccnc2)cc1Cl", "Potency": "inactive"},
      {"smiles": "N=C1/C(=C/c2cccn2CCOc2ccccc2)C(=O)N=C2SC=C(c3ccccc3)N12", "Potency": "inconclusive: 29.1 µM [cytotoxic, single point]"},
      {"smiles": "CC(C)=CCn1c2ccc(NC(=O)NCc3ccc(F)cc3)cc2c(=O)n1C", "Potency": "active: 4.61 µM"},
      {"smiles": "CC(=NNC(=S)Nc1ccc(C)cc1)c1ccccn1", "Potency": "inconclusive: 0.0073 µM [cytotoxic, full curve, poor fit]"},
      {"smiles": "C=CC[C@@H](CC(=O)OC(C)(C)C)C(=O)OC[C@H]1CCCN1C(=O)[C@@H](CC=C)CC(=O)N(CCO)Cc1ccccc1", "Potency": "inactive"},
      {"smiles": "Cc1ccccc1-c1nc(CN2CCC(C(=O)N3CCN(c4ccccn4)CC3)CC2)c(C)o1", "Potency": "inconclusive: 11.6 µM [cytotoxic, partial curve, poor fit]"},
      {"smiles": "C1=C/C(=C2/C=Cc3ccccc32)c2ccccc2N1", "Potency": "active: 4.61 µM"},
      {"smiles": "Nc1ccc(/C=C/c2ccnc3ccccc23)cc1", "Potency": "inactive"},
      {"smiles": "COc1cccc(Oc2cnc(N)nc2-c2ccc(OC)cc2O)c1", "Potency": "active: 6.51 µM"},
      {"smiles": "COc1ccc(NCc2cc3cc4c(cc3n(CC(=O)Nc3ccc(C)c(C)c3)c2=O)OCO4)cc1", "Potency": "inconclusive: 29.1 µM [rising, single point]"},
      {"smiles": "CC(C)(C)OC(=O)N1CCC(c2c(C(=O)N3CCCCC3)cnn2-c2ccccc2Cl)CC1", "Potency": "inactive"},
      {"smiles": "CC(C)C(C)NC(=O)COc1ccc(S(=O)(=O)N2CCOCC2)cc1[N+](=O)[O-]", "note": "(stereo not given)", "Potency": "inconclusive: 16.4 µM [cytotoxic, partial curve, poor fit]"},
      {"smiles": "O=C(Nc1nccs1)c1ccc(CSc2nnnn2-c2ccccc2)cc1", "Potency": "inconclusive: 22.4 µM [cytotoxic, single point]"},
      {"smiles": "CC(CC(=O)N1CCN(S(=O)(=O)c2ccc(Cl)cc2)CC1)n1cncn1", "note": "(stereo not given)", "Potency": "inactive"},
      {"smiles": "CN(c1ccc(C(=O)Nc2ccc(S(=O)(=O)N3CCCC3)cc2)cc1)S(C)(=O)=O", "Potency": "inconclusive: 9.2 µM [cytotoxic, partial curve, poor fit]"},
      {"smiles": "CCOC(=O)c1c(C)[nH]c(N=Nc2ccccc2Cl)c1C", "Potency": "inactive"},
      {"smiles": "O=C(Cn1c(-c2ccccc2)noc1=O)Nc1ccc(N2CCCCCC2)cc1", "Potency": "inactive"},
      {"smiles": "CCc1nc2c(OCc3cccc(Cl)c3)cccn2c1N(C)C(=O)c1ccc(OC)cc1", "Potency": "inactive"},
      {"smiles": "COc1ccc(-c2nn(-c3ccccc3)cc2C2NC(=O)NC(C)=C2C(=O)OC(C)C)cc1Cl", "note": "(stereo not given)", "Potency": "inconclusive: 16.4 µM [cytotoxic, single point]"},
      {"smiles": "CCOC(=S)SCc1cn2ccc(C)cc2n1", "Potency": "inactive"},
      {"smiles": "CCCCn1c(N)c(N(CC(C)C)C(=O)C2=NN(c3cc(C)ccc3C)C(=O)CC2)c(=O)[nH]c1=O", "Potency": "inconclusive: 0.206 µM [cytotoxic, full curve]"},
      {"smiles": "COc1ccc(OC)c(S(=O)(=O)NCC(c2ccco2)N2CCc3ccccc3C2)c1", "note": "(stereo not given)", "Potency": "inconclusive: 16.4 µM [rising, partial curve, poor fit]"},
      {"smiles": "O=C1Cc2ccccc2C(=O)N1", "Potency": "inactive"},
      {"smiles": "CCOC(=O)CC(NC(=O)CCc1c(C)nc2c(c1C)c(=O)n(C)c(=O)n2C)c1ccc(OCC)c(OC)c1", "note": "(stereo not given)", "Potency": "inconclusive: 29.1 µM [rising, single point]"},
      {"smiles": "COCCNC(=O)C1(C)CCCN(C(=O)c2cc(C)on2)C1", "note": "(stereo not given)", "Potency": "inactive"},
      {"smiles": "COc1ccc(CCNC(=O)c2cc(-c3cc(C)c(C)cc3O)n[nH]2)cc1OC", "Potency": "inactive"},
      {"smiles": "Nc1ccn([C@@H]2O[C@H](C(=O)N[C@H](COC=O)Cc3ccccc3)[C@@H](O)[C@H]2O)c(=O)n1", "Potency": "inconclusive: 29.1 µM [cytotoxic, single point]"},
      {"smiles": "CCOc1ccc(S(=O)(=O)Nc2cc3c(C(=O)OC)c(COC)oc3c3ccccc23)cc1", "Potency": "active: 3.66 µM"},
      {"smiles": "COc1ccc(S(=O)(=O)N(CC(=O)Nc2cc(Cl)ccc2C)Cc2ccccc2)cc1OC", "Potency": "inconclusive: 29.1 µM [cytotoxic, single point]"},
      {"smiles": "CCOc1ccc(N(CC(=O)N2CCOCC2)S(=O)(=O)c2ccc(F)cc2)cc1", "Potency": "inactive"},
      {"smiles": "CCSc1nnc(NS(=O)(=O)c2ccc(C)cc2)s1", "Potency": "inactive"},
      {"smiles": "O=C(c1cc(-c2cccnc2)nc2ccc(Cl)cc12)N1CCN(S(=O)(=O)c2cccs2)CC1", "Potency": "inconclusive: 18.4 µM [rising, partial curve, poor fit]"},
      {"smiles": "COc1ccc(CNC(=O)CN2C(=O)CCn3nc(-c4ccccc4)cc32)c(OC)c1", "Potency": "inactive"}
    ]}
  ]
}
